Source: the supplement of paper PMC10849652
The list shows a part of the results. Residues, ends and D or L forms follow the SMILES beside them. *: point of attachment. Cbz = O=C(OCc1ccccc1)*

Protein sequences, listed by entry. Tags and fused reporters are not part of them. Lines headed by an entry give the natural chain unless they say otherwise; changes in a name come on top.
UniProt O75155: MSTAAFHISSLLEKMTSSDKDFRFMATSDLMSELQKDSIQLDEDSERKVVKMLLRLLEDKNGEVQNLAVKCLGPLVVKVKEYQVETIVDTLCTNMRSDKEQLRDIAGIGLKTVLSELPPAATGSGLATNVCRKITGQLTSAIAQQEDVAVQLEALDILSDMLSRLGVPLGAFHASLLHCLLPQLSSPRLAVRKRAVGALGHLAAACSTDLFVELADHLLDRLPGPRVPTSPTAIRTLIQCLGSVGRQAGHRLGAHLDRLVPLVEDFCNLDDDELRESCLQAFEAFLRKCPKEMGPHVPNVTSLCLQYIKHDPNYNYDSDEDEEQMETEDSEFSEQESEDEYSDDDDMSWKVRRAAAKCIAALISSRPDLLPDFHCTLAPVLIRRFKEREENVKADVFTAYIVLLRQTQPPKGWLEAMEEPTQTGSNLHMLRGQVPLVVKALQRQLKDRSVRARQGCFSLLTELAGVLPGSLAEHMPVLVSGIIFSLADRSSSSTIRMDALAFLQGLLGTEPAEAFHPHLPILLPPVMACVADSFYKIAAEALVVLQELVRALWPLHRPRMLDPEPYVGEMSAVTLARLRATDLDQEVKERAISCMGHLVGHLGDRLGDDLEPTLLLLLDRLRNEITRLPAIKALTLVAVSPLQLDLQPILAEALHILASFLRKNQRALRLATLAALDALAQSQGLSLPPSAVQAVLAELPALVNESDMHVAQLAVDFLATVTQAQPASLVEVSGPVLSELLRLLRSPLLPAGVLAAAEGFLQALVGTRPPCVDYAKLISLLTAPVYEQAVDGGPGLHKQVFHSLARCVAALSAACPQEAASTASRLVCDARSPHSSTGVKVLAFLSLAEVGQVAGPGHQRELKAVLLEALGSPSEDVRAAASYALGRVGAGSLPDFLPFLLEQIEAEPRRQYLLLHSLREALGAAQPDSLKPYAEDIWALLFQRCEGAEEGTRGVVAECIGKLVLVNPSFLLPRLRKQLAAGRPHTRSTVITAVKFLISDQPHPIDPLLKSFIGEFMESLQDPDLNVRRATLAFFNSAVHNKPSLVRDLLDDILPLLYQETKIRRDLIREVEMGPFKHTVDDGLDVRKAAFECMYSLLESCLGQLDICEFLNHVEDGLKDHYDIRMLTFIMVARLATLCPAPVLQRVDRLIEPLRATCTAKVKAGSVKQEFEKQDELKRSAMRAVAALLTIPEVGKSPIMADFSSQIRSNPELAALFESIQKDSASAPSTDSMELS
UniProt P35613: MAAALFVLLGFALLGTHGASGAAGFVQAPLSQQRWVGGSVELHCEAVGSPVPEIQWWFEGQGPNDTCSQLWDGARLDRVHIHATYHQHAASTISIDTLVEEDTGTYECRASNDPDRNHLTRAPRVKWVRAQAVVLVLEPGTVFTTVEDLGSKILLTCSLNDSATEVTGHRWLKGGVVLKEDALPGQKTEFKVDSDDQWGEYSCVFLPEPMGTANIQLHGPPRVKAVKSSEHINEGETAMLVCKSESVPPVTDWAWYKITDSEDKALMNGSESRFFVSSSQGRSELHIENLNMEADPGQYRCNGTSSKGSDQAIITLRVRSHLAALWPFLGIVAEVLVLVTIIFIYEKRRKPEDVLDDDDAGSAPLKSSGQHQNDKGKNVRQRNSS
UniProt P17655: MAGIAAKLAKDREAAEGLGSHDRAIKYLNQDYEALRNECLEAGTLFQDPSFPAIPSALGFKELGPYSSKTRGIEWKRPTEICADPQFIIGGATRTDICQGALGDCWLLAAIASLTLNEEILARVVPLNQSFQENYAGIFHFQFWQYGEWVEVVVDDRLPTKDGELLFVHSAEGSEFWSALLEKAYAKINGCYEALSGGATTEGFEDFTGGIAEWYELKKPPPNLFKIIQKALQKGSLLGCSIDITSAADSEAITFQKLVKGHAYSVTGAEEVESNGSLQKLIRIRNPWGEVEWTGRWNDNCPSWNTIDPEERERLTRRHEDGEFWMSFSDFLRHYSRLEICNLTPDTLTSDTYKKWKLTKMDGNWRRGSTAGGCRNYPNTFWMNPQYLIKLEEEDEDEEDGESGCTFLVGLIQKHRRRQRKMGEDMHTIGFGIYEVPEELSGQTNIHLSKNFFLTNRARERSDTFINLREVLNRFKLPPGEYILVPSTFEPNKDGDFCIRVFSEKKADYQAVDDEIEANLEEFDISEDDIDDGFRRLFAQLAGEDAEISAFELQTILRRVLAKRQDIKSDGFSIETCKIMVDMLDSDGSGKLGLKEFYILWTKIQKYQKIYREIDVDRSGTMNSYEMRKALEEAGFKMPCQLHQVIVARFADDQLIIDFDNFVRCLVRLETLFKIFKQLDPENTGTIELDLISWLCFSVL
UniProt Q8N5I9: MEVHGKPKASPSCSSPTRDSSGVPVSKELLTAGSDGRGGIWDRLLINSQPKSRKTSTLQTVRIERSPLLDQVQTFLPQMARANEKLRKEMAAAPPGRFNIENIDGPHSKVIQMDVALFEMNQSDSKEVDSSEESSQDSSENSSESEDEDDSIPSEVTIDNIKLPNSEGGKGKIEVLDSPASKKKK
UniProt Q9HAS0: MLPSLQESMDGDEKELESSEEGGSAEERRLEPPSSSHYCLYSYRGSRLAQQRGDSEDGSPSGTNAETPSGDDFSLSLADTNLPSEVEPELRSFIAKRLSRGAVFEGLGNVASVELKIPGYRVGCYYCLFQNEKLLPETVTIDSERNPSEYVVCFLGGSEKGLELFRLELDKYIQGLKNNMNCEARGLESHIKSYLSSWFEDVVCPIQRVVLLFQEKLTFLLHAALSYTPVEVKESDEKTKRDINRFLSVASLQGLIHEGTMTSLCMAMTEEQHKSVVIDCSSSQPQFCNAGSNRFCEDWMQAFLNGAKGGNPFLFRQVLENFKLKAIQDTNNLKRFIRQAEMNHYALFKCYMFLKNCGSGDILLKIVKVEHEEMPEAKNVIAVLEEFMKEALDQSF
UniProt P27824: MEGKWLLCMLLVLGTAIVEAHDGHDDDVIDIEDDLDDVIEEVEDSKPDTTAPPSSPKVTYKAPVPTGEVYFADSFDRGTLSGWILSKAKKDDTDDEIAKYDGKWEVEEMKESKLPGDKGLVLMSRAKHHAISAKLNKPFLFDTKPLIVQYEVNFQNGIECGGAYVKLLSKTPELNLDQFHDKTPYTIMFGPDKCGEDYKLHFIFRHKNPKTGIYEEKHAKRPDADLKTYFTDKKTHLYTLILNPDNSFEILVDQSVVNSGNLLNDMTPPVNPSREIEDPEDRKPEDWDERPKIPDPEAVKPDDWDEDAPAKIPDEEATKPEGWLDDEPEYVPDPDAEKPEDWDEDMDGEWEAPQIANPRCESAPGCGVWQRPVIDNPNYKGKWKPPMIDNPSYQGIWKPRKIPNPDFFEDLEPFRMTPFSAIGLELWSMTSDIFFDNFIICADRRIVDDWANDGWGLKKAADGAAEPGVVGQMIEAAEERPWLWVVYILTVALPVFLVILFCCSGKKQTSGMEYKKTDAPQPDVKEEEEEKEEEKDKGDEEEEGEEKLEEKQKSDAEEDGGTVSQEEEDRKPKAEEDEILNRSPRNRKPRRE
UniProt P07384: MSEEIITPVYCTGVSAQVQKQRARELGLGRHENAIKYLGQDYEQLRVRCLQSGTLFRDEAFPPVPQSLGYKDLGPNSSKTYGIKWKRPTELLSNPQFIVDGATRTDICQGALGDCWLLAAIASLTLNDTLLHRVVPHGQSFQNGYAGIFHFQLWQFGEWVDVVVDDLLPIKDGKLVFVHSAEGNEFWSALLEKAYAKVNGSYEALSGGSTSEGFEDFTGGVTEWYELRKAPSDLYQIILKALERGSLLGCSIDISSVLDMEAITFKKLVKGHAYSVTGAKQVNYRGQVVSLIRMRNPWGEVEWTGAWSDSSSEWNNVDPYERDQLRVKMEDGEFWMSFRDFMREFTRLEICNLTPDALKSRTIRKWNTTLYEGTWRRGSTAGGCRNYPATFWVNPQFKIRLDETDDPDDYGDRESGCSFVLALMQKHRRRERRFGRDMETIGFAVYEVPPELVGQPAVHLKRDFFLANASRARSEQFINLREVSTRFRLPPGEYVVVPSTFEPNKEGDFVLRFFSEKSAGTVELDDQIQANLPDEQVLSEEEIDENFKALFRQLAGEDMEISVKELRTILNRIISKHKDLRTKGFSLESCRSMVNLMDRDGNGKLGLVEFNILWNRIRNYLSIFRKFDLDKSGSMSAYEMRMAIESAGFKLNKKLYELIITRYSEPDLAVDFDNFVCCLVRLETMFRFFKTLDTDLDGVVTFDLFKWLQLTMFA
UniProt Q8N6N3: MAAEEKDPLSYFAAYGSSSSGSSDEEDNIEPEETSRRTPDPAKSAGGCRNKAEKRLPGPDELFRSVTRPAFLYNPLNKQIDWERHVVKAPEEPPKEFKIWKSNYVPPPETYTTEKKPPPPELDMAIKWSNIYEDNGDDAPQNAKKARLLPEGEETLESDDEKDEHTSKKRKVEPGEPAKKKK
UniProt Q9H3H3: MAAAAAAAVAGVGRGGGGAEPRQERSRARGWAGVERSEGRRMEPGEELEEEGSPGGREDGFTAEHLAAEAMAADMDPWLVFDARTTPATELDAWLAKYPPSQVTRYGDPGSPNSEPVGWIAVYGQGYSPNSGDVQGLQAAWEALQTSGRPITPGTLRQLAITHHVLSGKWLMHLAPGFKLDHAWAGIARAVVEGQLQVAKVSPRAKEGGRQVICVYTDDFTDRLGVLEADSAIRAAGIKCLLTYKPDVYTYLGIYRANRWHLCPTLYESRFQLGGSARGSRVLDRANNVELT
UniProt Q8N999, whole entry, looked up: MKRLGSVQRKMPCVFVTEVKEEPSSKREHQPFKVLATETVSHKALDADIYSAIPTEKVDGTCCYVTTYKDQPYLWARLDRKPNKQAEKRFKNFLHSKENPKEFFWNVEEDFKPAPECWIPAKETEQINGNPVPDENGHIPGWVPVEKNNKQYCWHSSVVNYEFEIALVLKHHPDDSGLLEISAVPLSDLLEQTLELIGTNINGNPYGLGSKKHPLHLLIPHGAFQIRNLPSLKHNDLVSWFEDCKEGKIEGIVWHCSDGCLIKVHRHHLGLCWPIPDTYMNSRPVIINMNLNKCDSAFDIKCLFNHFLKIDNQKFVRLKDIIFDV
UniProt O43852: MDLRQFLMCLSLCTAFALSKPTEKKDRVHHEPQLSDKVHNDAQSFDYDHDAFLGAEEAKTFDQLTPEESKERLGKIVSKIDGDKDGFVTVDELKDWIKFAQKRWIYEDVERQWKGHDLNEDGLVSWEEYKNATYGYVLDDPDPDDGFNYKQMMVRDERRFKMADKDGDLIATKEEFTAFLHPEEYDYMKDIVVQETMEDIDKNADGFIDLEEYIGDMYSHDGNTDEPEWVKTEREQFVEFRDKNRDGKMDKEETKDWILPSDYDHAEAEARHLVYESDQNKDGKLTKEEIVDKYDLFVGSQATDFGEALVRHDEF
UniProt Q9Y6W3: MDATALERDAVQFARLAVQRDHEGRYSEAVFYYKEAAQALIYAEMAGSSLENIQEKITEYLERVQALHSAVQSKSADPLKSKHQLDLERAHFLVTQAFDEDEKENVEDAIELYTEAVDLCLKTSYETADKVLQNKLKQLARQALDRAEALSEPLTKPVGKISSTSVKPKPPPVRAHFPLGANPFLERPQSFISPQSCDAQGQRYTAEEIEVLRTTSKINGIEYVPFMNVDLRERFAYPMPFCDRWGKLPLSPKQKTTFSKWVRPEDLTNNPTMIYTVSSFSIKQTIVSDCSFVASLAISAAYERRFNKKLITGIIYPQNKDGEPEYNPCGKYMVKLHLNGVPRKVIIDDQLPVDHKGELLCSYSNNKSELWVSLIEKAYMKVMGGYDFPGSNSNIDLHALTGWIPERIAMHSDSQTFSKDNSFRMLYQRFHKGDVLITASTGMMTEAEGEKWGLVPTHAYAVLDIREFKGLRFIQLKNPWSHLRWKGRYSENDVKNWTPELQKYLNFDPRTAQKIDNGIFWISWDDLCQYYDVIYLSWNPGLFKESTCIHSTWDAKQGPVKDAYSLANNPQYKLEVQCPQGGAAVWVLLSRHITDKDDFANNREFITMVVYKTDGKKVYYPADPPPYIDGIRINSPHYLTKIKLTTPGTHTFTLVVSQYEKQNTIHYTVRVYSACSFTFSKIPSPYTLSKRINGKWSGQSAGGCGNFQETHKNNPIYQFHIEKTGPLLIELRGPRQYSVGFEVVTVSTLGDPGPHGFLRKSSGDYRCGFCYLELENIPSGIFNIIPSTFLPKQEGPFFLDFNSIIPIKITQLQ
UniProt P04632: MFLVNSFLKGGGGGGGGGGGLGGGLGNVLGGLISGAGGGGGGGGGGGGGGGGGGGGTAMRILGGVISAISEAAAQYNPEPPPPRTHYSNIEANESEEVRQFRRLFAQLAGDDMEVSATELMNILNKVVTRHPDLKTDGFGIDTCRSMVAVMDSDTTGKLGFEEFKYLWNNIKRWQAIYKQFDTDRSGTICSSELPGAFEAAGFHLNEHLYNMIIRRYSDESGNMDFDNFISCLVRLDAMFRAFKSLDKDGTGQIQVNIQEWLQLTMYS

Assays:
Assay in all cases: log2 fold change, soluble protein after heating vs DMSO (PISA); higher = thermal stabilisation; K562 cells, 10 uM, 30 min; active = over 0.2 and 3.5 SD of the protein, either way, in both replicates (recomputed)
IRAK-1-4 Inhibitor I = compound: C1COCCN1CCN2C3=CC=CC=C3N=C2NC(=O)C4=CC(=CC=C4)[N+](=O)[O-] [IRAK-1-4 Inhibitor I]
Procedure, shortened: (§1)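 For each measurement, 10 μM compound was applied for 30 min to K562 cells at 2×10^6 cells/mL. Aliquots were heated for 3 min across 48°C-58°C, pooled, and extracted in PBS with 0.5% NP-40 at 4°C; the supernatant after 21,000xg for 90 min was soluble protein. This was quantified by TMTpro 16plex LC-MS/MS with channel sums equalised, and thermal stability was reported relative to control samples from duplicates, on a log2 fold-change scale.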

ibrutinib = compound: C=CC(=O)N1CCC[C@@H](n2nc(-c3ccc(Oc4ccccc4)cc3)c3c(N)ncnc32)C1 [ibrutinib]
Procedure, shortened: as §1

[1] = compound: CC(=O)c1cnc2ccc(-c3cc(Cl)c(O)c(Cl)c3)nc2c1N[C@H]1CC[C@H](CN(C)C)CC1
Procedure, shortened: as §1

ralimetinib = compound: CC(C)(C)Cn1c(N)nc2ccc(-c3[nH]c(C(C)(C)C)nc3-c3ccc(F)cc3)nc21 [ralimetinib]
Procedure, shortened: as §1

[2] = compound: CC(C)(O)CC(=O)NCCn1ccc2ncnc(Nc3ccc(Oc4cccc(C(F)(F)F)c4)c(Cl)c3)c21
Procedure, shortened: as §1

[3] = compound: CC(C)C1=C2N=C(C=C(N2N=C1)NCC3=CC=CC=C3)NCCCCCCN
Procedure, shortened: as §1

[4] = compound: CC(C)C[C@@H](C=O)NC(=O)[C@H](CC(C)C)NC(=O)[C@H](CC(C)C)NC(=O)OCc1ccccc1
Procedure, shortened: as §1

pinometostat = compound: CC(C)N(C[C@H]1O[C@@H](n2cnc3c(N)ncnc32)[C@H](O)[C@@H]1O)[C@H]1C[C@@H](CCc2nc3cc(C(C)(C)C)ccc3[nH]2)C1 [pinometostat]
Procedure, shortened: as §1

[5] = compound: CC1=C(C(CC(=O)N1)C2=CC=C(C=C2)C(F)(F)F)C(=O)NC3=C(C=C4C(=C3)C=NN4)F
Procedure, shortened: as §1

[6] = compound: CC1=C(C2=C(C=C1)C(=O)C3=CC=CC=C3N2CCCN)C
Procedure, shortened: as §1

[7] = compound: CC1=C(C=C(C=C1)NC(=O)C2=CC(=CC=C2)C(C)(C)C#N)NC3=CC4=C(C=C3)N=CN(C4=O)C
Procedure, shortened: as §1

[8] = compound: CC1=C(C=C(C=C1)NC(=O)C2=CC(=CC=C2)N(C)C)NC(=O)C3=CC=C(C=C3)O
Procedure, shortened: as §1

[9] = compound: CC1=CC=C(C=C1)SC2=C3C=C(SC3=CN=C2)C(=O)N
Procedure, shortened: as §1

[10] = compound: CC1=NC(=CC=C1)C2=C(N=C(N2)C(C)(C)C)C3=CC4=NC=CN=C4C=C3
Procedure, shortened: as §1

Nexturastat A = compound: CCCCN(Cc1ccc(C(=O)NO)cc1)C(=O)Nc1ccccc1 [Nexturastat A]
Procedure, shortened: as §1

vemurafenib = compound: CCCS(=O)(=O)Nc1ccc(F)c(C(=O)c2c[nH]c3ncc(-c4ccc(Cl)cc4)cc23)c1F [vemurafenib]
Procedure, shortened: as §1

[11] = compound: CCCS(=O)(=O)Nc1ccc(F)c(C(=O)c2c[nH]c3ncc(Cl)cc23)c1F
Procedure, shortened: as §1

[12] = compound: CCCc1cc(C)[nH]c(=O)c1CNC(=O)c1cc(-c2ccnc(N3CCN(C)CC3)c2)cc2c1cnn2C(C)C
Procedure, shortened: as §1

givinostat = compound: CCN(CC)Cc1ccc2cc(COC(=O)Nc3ccc(C(=O)NO)cc3)ccc2c1 [givinostat]
Procedure, shortened: as §1

barasertib = compound: CCN(CCCOc1ccc2c(Nc3cc(CC(=O)Nc4cccc(F)c4)[nH]n3)ncnc2c1)CCOP(=O)(O)O [barasertib]
Procedure, shortened: as §1

Measured: log2 fold change

CAND2 (UniProt O75155)
inactive: IRAK-1-4 Inhibitor I -0.092 | ibrutinib -0.008 | [1] 0.074 | ralimetinib -0.02 | [2] -0.053 | [3] 0.064 | [4] -0.019 | pinometostat 0.081 | [5] 0.01 | [6] -0.121 | [7] -0.028 | [8] 0.001 | [9] -0.054 | [10] -0.037 | Nexturastat A -0.057 | vemurafenib -0.023 | [11] -0.012 | [12] -0.021 | givinostat 0.002 | barasertib 0.013

BSG (UniProt P35613)
inactive: IRAK-1-4 Inhibitor I 0.021 | ibrutinib 0.012 | [1] -0.043 | ralimetinib -0.041 | [2] 0.022 | [3] 0.165 | [4] -0.001 | pinometostat -0.01 | [5] -0.013 | [6] 0.037 | [7] -0.003 | [8] 0.018 | [9] 0.024 | [10] -0.004 | Nexturastat A -0.047 | vemurafenib -0.006 | [11] -0.004 | [12] -0.014 | givinostat -0.021 | barasertib -0.023

CAPN2 (UniProt P17655)
inactive: IRAK-1-4 Inhibitor I 0.055 | ibrutinib 0.042 | [1] 0.019 | ralimetinib -0.017 | [2] 0 | [3] 0.017 | [4] -0.067 | pinometostat -0.003 | [5] 0.003 | [6] 0.001 | [7] -0.029 | [8] -0.002 | [9] -0.05 | [10] 0.014 | Nexturastat A -0.02 | vemurafenib -0.022 | [11] -0.032 | [12] -0.032 | givinostat -0.026 | barasertib -0.004

CALM2 (UniProt P0DP24)
inactive: IRAK-1-4 Inhibitor I 0.064 | ibrutinib 0.038 | [1] 0.036 | ralimetinib 0.146 | [2] -0.021 | [3] 0.083 | [4] -0.008 | pinometostat -0.073 | [5] 0.002 | [6] 0.002 | [7] 0.015 | [8] -0.003 | [9] 0.015 | [10] 0.046 | Nexturastat A -0.01 | vemurafenib -0.001 | [11] -0.069 | [12] 0.026 | givinostat -0.02 | barasertib -0.014

C12orf45 (UniProt Q8N5I9)
inactive: IRAK-1-4 Inhibitor I 0.036 | ibrutinib -0.063 | [1] 0.045 | ralimetinib -0.073 | [2] 0 | [3] 0.017 | [4] 0.065 | pinometostat -0.059 | [5] 0.051 | [6] -0.213 | [7] -0.018 | [8] 0.046 | [9] -0.051 | [10] -0.001 | Nexturastat A -0.022 | vemurafenib -0.005 | [11] -0.01 | [12] -0.013 | givinostat -0.005 | barasertib 0.007

C17orf75 (UniProt Q9HAS0)
inactive: IRAK-1-4 Inhibitor I -0.018 | ibrutinib 0.151 | [1] -0.038 | ralimetinib 0.03 | [2] -0.042 | [3] 0.08 | [4] -0.003 | pinometostat 0.114 | [5] -0.006 | [6] 0.113 | [7] -0.038 | [8] 0.005 | [9] 0.012 | [10] -0.02 | Nexturastat A 0.134 | vemurafenib -0.006 | [11] 0.068 | [12] 0.046 | givinostat 0.114 | barasertib -0.091

CANX isoform 2 (UniProt P27824)
inactive: IRAK-1-4 Inhibitor I -0.034 | ibrutinib -0.001 | [1] 0.023 | ralimetinib 0.018 | [2] 0.057 | [3] -0.011 | [4] 0.029 | pinometostat 0.026 | [5] 0.023 | [6] -0.052 | [7] 0.078 | [8] -0.006 | [9] -0.048 | [10] -0.057 | Nexturastat A 0.075 | vemurafenib -0.026 | [11] -0.04 | [12] 0.041 | givinostat -0.019 | barasertib -0.007

CAPN1 (UniProt P07384)
inactive: IRAK-1-4 Inhibitor I 0.032 | ibrutinib 0.035 | [1] 0.015 | ralimetinib -0.001 | [2] 0.009 | [3] 0.125 | [4] -0.022 | pinometostat -0.041 | [5] 0.01 | [6] 0.035 | [7] 0.01 | [8] 0.008 | [9] 0.016 | [10] 0 | Nexturastat A -0.077 | vemurafenib 0.039 | [11] 0.007 | [12] -0.015 | givinostat -0.023 | barasertib -0.02

C1orf52 (UniProt Q8N6N3)
inactive: IRAK-1-4 Inhibitor I 0.066 | ibrutinib -0.033 | [1] 0.025 | ralimetinib -0.064 | [2] 0.051 | [3] 0.087 | [4] 0.098 | pinometostat -0.007 | [5] 0.016 | [6] 0.044 | [7] -0.008 | [8] 0.039 | [9] -0.033 | [10] 0.012 | Nexturastat A 0.009 | vemurafenib -0.016 | [11] 0.014 | [12] -0.042 | givinostat -0.029 | barasertib -0.016

BTF3L4 (UniProt Q96K17)
inactive: IRAK-1-4 Inhibitor I 0.087 | ibrutinib 0.007 | [1] -0.036 | ralimetinib -0.057 | [2] 0.01 | [3] 0.077 | [4] -0.015 | pinometostat -0.04 | [5] 0.004 | [6] -0.031 | [7] -0.009 | [8] -0.001 | [9] 0.025 | [10] 0.095 | Nexturastat A -0.079 | vemurafenib 0.009 | [11] 0.024 | [12] 0.016 | givinostat 0.003 | barasertib -0.008

Copied from the entries so far (two entries):
C1orf52 (UniProt Q8N6N3)
inactive: IRAK-1-4 Inhibitor I 0.066 | ibrutinib -0.033 | [1] 0.025 | ralimetinib -0.064 | [2] 0.051 | [3] 0.087 | [4] 0.098 | pinometostat -0.007 | [5] 0.016 | [6] 0.044 | [7] -0.008 | [8] 0.039 | [9] -0.033 | [10] 0.012 | Nexturastat A 0.009 | vemurafenib -0.016 | [11] 0.014 | [12] -0.042 | givinostat -0.029 | barasertib -0.016

BTF3L4 (UniProt Q96K17)
inactive: IRAK-1-4 Inhibitor I 0.087 | ibrutinib 0.007 | [1] -0.036 | ralimetinib -0.057 | [2] 0.01 | [3] 0.077 | [4] -0.015 | pinometostat -0.04 | [5] 0.004 | [6] -0.031 | [7] -0.009 | [8] -0.001 | [9] 0.025 | [10] 0.095 | Nexturastat A -0.079 | vemurafenib 0.009 | [11] 0.024 | [12] 0.016 | givinostat 0.003 | barasertib -0.008

(cont.)

C11orf68 (UniProt Q9H3H3)
inactive: IRAK-1-4 Inhibitor I 0.027 | ibrutinib 0.022 | [1] -0.043 | ralimetinib -0.071 | [2] -0.084 | [3] -0.036 | [4] 0.031 | pinometostat -0.012 | [5] -0.004 | [6] 0.024 | [7] -0.015 | [8] -0.011 | [9] 0.081 | [10] -0.011 | Nexturastat A 0 | vemurafenib 0.049 | [11] 0.171 | [12] -0.028 | givinostat -0.007 | barasertib -0.017

C20orf27 isoform 2 (UniProt Q9GZN8)
inactive: IRAK-1-4 Inhibitor I 0.052 | ibrutinib 0.06 | [1] -0.043 | ralimetinib 0.017 | [2] -0.106 | [3] -0.011 | [4] -0.001 | pinometostat -0.014 | [5] -0.066 | [6] 0.023 | [7] -0.006 | [8] 0.009 | [9] 0.047 | [10] 0.054 | Nexturastat A 0.007 | vemurafenib 0.013 | [11] 0.06 | [12] -0.055 | givinostat 0.017 | barasertib -0.075

C12orf29 (UniProt Q8N999)
inactive: IRAK-1-4 Inhibitor I -0.041 | ibrutinib -0.011 | [1] -0.014 | ralimetinib -0.066 | [2] -0.033 | [3] -0.009 | [4] 0.078 | pinometostat 0.018 | [5] 0.037 | [6] -0.118 | [7] -0.02 | [8] -0.045 | [9] 0.041 | [10] 0.005 | Nexturastat A -0.03 | vemurafenib -0.024 | [11] 0.044 | [12] -0.007 | givinostat -0.076 | barasertib 0.011

CALU isoform 4 (UniProt O43852)
inactive: IRAK-1-4 Inhibitor I 0.081 | ibrutinib -0.024 | [1] 0.039 | ralimetinib -0.105 | [2] 0.057 | [3] 0.013 | [4] -0.034 | pinometostat -0.047 | [5] -0.019 | [6] -0.024 | [7] -0.015 | [8] -0.005 | [9] 0.027 | [10] 0.006 | Nexturastat A -0.062 | vemurafenib -0.024 | [11] -0.031 | [12] -0.056 | givinostat -0.016 | barasertib -0.014

CAPN7 (UniProt Q9Y6W3)
inactive: IRAK-1-4 Inhibitor I 0.005 | ibrutinib -0.033 | [1] -0.032 | ralimetinib 0.054 | [2] -0.129 | [3] -0.136 | [4] 0 | pinometostat 0.027 | [5] 0 | [6] 0.019 | [7] 0.057 | [8] -0.039 | [9] 0.023 | [10] -0.002 | Nexturastat A 0 | vemurafenib 0.009 | [11] 0.023 | [12] 0.013 | givinostat 0.065 | barasertib 0.108

CAPNS1 (UniProt P04632)
inactive: IRAK-1-4 Inhibitor I 0.057 | ibrutinib 0.079 | [1] -0.017 | ralimetinib -0.129 | [2] 0.036 | [3] 0.029 | [4] -0.096 | pinometostat -0.037 | [5] 0.059 | [6] -0.026 | [7] 0.012 | [8] 0.001 | [9] 0.016 | [10] -0.014 | Nexturastat A -0.063 | vemurafenib -0.018 | [11] -0.001 | [12] -0.02 | givinostat -0.051 | barasertib -0.003
